Counter-ions that a name gives are not always drawn. Like-named read-outs stand apart in the source and are kept apart here. Some entries share one result that the patent states for a list of compounds. At least one structure is not confirmed: it was looked up by name or label, or the drawing left a doubt.
Experiments:
Type in all cases: in vivo
[1] = system: diamondback moth (Plutella xylostella); assay: Test A: control of diamondback moth, foliar spray on pre-infested radish plant; settings: sprayed at 250 ppm, 6 days at 25° C., very good to excellent control
[2] = system: cat flea (Ctenocephalides felis); settings: 30 ppm in bovine blood; adult fleas; 72 h
Protocol: For evaluating control of the cat flea (Ctenocephalides felis), a test compound was solubilized in propylene glycol/glycerol formal (60:40) and then diluted in bovine blood to a final test rate of 30 ppm. The treated blood was placed in a tube with the bottom of the tube covered with a membrane. Approximately 10 adult cat fleas were allowed to feed through the membrane on the treated blood. The adult fleas were evaluated for mortality 72 h later.

[3] = system: fall armyworm (Spodoptera frugiperda); assay: Test B: control of fall armyworm, foliar spray on pre-infested maize plant; settings: sprayed at 250 ppm, very good to excellent control
[4] = system: potato leafhopper (Empoasca fabae); settings: Soleil bean plant, 6 days
[5] = system: cat flea (Ctenocephalides felis); assay: Test J: control of cat flea following oral administration of test compound to a mouse; settings: CD-1 mouse orally dosed 10 mg/kg; fleas applied 2 h after dosing; 48 hours after flea application
[6] = system: corn planthopper (Peregrinus maidis); settings: maize plant, 6 days
Protocol: For evaluating control of corn planthopper (Peregrinus maidis) through contact and/or systemic means, the test unit consisted of a small open container with a 3-4-day-old maize plant (spike) inside. White sand was added to the top of the soil prior to application. Test compounds were formulated and sprayed at 250 and 50 ppm and replicated three times as described for Test A. After spraying, the test units were allowed to dry for 1 h before they were post-infested with ˜15-20 nymphs (18 to 21 day old) by sprinkling them onto the sand with a salt shaker. A black, screened cap was placed on the top of the cylinder. The test units were held for 6 days in a growth chamber at 22-24° C. and 50-70% relative humidity. Each test unit was then visually assessed for insect mortality.

| SMILES | control efficacy: feeding damage (40% or less feeding damage and/or 100% mortality) [1] | mortality [2] | control efficacy: feeding damage (40% or less feeding damage and/or 100% mortality) [3] | mortality ([4]; sprayed at 50 ppm) | mortality ([4]; sprayed at 250 ppm) | mortality [5] | mortality ([6]; sprayed at 250 ppm) | mortality ([6]; sprayed at 50 ppm) |
| --- | --- | --- | --- | --- | --- | --- | --- | --- |
| O=c1c(-c2cccc(OC(F)(F)F)c2)c([O-])[n+](CC(F)(F)F)c2sccn12 [Compound 135] | ≤ 40% | ≥ 50% |  |  |  |  |  |  |
| O=c1c(-c2cccc(OC(F)(F)F)c2)c([O-])[n+](Cc2cnc(Cl)s2)c2ccccn12 [Compound 45] | ≤ 40% |  | ≤ 40% | ≥ 80% | ≥ 80% | ≥ 20% |  |  |
| O=c1c(-c2ccccc2)c([O-])[n+](CC(F)(F)C(F)(F)F)c2ccccn12 [Compound 34] |  | ≥ 50% |  |  |  |  | at least 80% |  |
| O=c1c(-c2cccc(Cl)c2)c([O-])[n+](Cc2cnc(Cl)s2)c2ccccn12 [Compound 47] | ≤ 40% |  | ≤ 40% | ≥ 80% | ≥ 80% | ≥ 20% |  |  |
| O=c1c(-c2ccc(F)cc2F)c([O-])[n+](Cc2cnc(Cl)s2)c2ccccn12 [Compound 44] | ≤ 40% |  | ≤ 40% | ≥ 80% | ≥ 80% | ≥ 20% |  |  |
| O=c1c(-c2cc(F)c(F)cc2F)c([O-])[n+](Cc2cnc(Cl)s2)c2ccccn12 [Compound 493] | ≤ 40% |  | ≤ 40% | ≥ 80% |  | ≥ 20% |  |  |
| O=c1c(-c2ccc(F)cc2)c([O-])[n+](Cc2coc(Cl)n2)c2ccccn12 [Compound 191] |  | ≥ 50% |  |  |  |  |  |  |
| O=c1c(-c2cc(F)cc(F)c2)c([O-])[n+](Cc2ccc(Cl)nc2)c2ccccn12 [Compound 476] | ≤ 40% |  | ≤ 40% | ≥ 80% | ≥ 80% | ≥ 20% |  |  |
| O=c1cc([O-])[n+](Cc2cnc(Cl)s2)c2ccccn12 [Compound 125, 1-[(2-chloro-5-thiazolyl)methyl]-2-hydroxy-4-oxo-4H-pyrido[1,2-a]pyrimidinium inner salt] |  | ≥ 50% |  |  |  |  |  | ≥ 80% |
| O=c1c(-c2c(F)cccc2F)c([O-])[n+](Cc2ccc(Cl)nc2)c2ccccn12 [Compound 461] | ≤ 40% |  | ≤ 40% | ≥ 80% | ≥ 80% | ≥ 20% |  |  |
| O=c1c(-c2c(Cl)cc(Cl)cc2Cl)c([O-])[n+](CCC(F)=C(F)F)c2ccccn12 [Compound 382] |  | ≥ 50% |  |  |  |  |  |  |
| O=c1c(-c2c(Cl)cc(Cl)cc2Cl)c([O-])[n+](CCC(F)C(F)(F)Cl)c2ccccn12 (stereo not shown) [Compound 383] |  | ≥ 50% |  |  |  |  |  |  |
| O=c1c(-c2cccc(OC(F)(F)F)c2)c([O-])[n+](CCCC(F)(F)Cl)c2ccccn12 [Compound 391] | ≤ 40% | ≥ 50% |  |  |  |  |  |  |
| O=c1c(-c2cccc(Br)c2)c([O-])[n+](Cc2ccc(Cl)nc2)c2ccccn12 [Compound 51] | ≤ 40% |  | ≤ 40% | ≥ 80% | ≥ 80% | ≥ 20% |  |  |
| O=c1c(-c2cccc(OC(F)(F)F)c2)c([O-])[n+](Cc2ccc(Cl)nc2)c2c(F)cccn12 [Compound 589] | ≤ 40% | ≥ 50% |  |  |  |  |  |  |
| N#Cc1ccc(-c2c([O-])[n+](Cc3cnc(Cl)s3)c3ccccn3c2=O)cc1 [Compound 475] | ≤ 40% |  | ≤ 40% | ≥ 80% | ≥ 80% | ≥ 20% |  |  |
| O=c1c(-c2cccc(C(F)(F)F)c2)c([O-])[n+](CCC(F)=C(F)F)c2ccccn12 [Compound 371] | ≤ 40% | ≥ 50% |  |  |  |  |  |  |

| SMILES | control efficacy: feeding damage (40% or less feeding damage and/or 100% mortality) [1] | mortality [2] | control efficacy: feeding damage (40% or less feeding damage and/or 100% mortality) [3] | mortality ([4]; sprayed at 50 ppm) | mortality ([4]; sprayed at 250 ppm) | mortality [5] | mortality ([6]; sprayed at 250 ppm) | mortality ([6]; sprayed at 50 ppm) |
| --- | --- | --- | --- | --- | --- | --- | --- | --- |
| COc1ccc(-c2c([O-])[n+](Cc3ccc(Cl)nc3)c3ccccn3c2=O)cc1 [Compound 75] | ≤ 40% |  | ≤ 40% | ≥ 80% | ≥ 80% | ≥ 20% |  |  |
| O=c1c(-c2ccccc2)c([O-])[n+](Cc2coc(Cl)n2)c2ccccn12 [Compound 190] | ≤ 40% | ≥ 50% |  |  |  |  |  |  |
| O=c1c(-c2cccc(C(F)(F)F)c2)c([O-])[n+](Cc2cnc(Cl)s2)c2ccccn12 [Compound 46] | ≤ 40% |  | ≤ 40% | ≥ 80% | ≥ 80% | ≥ 20% |  |  |
| O=c1c(-c2cc(Br)cc(C(F)(F)F)c2)c([O-])[n+](Cc2cnc(Cl)s2)c2ccccn12 [Compound 498] | ≤ 40% |  | ≤ 40% | ≥ 80% |  | ≥ 20% |  |  |
| O=c1c(-c2cc(C(F)(F)F)cc(C(F)(F)F)c2)c([O-])[n+](Cc2cnc(Cl)s2)c2ccccn12 [Compound 186] | ≤ 40% |  | ≤ 40% | ≥ 80% |  | ≥ 20% |  |  |
| O=c1c(-c2ccc(F)cc2)c([O-])[n+](Cc2cnc(Cl)s2)c2ccccn12 [Compound 42] | ≤ 40% |  | ≤ 40% | ≥ 80% | ≥ 80% | ≥ 20% |  |  |
| Cc1ccc(-c2c([O-])[n+](CC(F)(F)F)c3ccccn3c2=O)c(C)c1 [Compound 385] |  | ≥ 50% |  |  | ≥ 80% |  |  |  |
| C=C(F)C[n+]1c([O-])c(-c2cccc(OC(F)(F)F)c2)c(=O)n2ccccc21 [Compound 206] | ≤ 40% | ≥ 50% |  |  |  |  |  |  |
| CCC[n+]1c([O-])c(-c2ccc(SC)cc2)c(=O)n2ccccc21 [Compound 331] |  | ≥ 50% |  |  |  |  |  |  |
| O=c1c(-c2cccc(F)c2)c([O-])[n+](Cc2cnc(Cl)s2)c2ccccn12 [Compound 477] | ≤ 40% |  | ≤ 40% | ≥ 80% | ≥ 80% | ≥ 20% |  |  |
| O=c1c(-c2ccc(F)cc2)c([O-])[n+](CC2CC2)c2ccccn12 [Compound 19] | ≤ 40% |  |  | ≥ 80% | ≥ 80% | ≥ 20% |  |  |
| O=c1c(-c2ccc(F)c(Br)c2)c([O-])[n+](Cc2ccc(Cl)nc2)c2ccccn12 [Compound 92] | ≤ 40% |  | ≤ 40% | ≥ 80% | ≥ 80% | ≥ 20% |  |  |
| COc1cccc(-c2c([O-])[n+](Cc3ccc(Cl)nc3)c3ccccn3c2=O)c1 [Compound 83] | ≤ 40% |  | ≤ 40% | ≥ 80% | ≥ 80% | ≥ 20% |  |  |
| COc1cccc(-c2c([O-])[n+](Cc3cnc(Cl)s3)c3ccccn3c2=O)c1 [Compound 123] | ≤ 40% |  | ≤ 40% | ≥ 80% | ≥ 80% | ≥ 20% |  |  |
| O=c1c(-c2ccccc2)c([O-])[n+](Cc2cnc(Cl)s2)c2ccccn12 [Compound 43] | ≤ 40% |  | ≤ 40% | ≥ 80% | ≥ 80% | ≥ 20% |  |  |
| O=c1c(-c2cccc(Cl)c2)c([O-])[n+](Cc2ccc(Cl)nc2)c2ccccn12 [Compound 56] | ≤ 40% |  | ≤ 40% | ≥ 80% | ≥ 80% | ≥ 20% |  |  |
| O=c1c(-c2cc(Cl)cc(Cl)c2)c([O-])[n+](Cc2cnc(Cl)s2)c2ccccn12 [Compound 169] | ≤ 40% |  | ≤ 40% |  |  | ≥ 20% |  |  |
